Data as given in PubChem BioAssay AID1347075 (National Center for Advancing Translational Sciences (NCATS), 2019).
Screen size: about 400,000 compounds; about 5,500 (1.4%) were called active. Inconclusive means that the source gave no clear call. Such entries were picked first, then a sample of the others. Calls follow the shape of the dose curve; as a rule, active = well fitted cell-killing curve with a large enough effect; inconclusive = small, poorly fitted or top-dose-only effect, or effect the other way; inactive = flat fitted curve, though single readings scatter. Potencies beside an inconclusive call are fits to weak or partial responses and may not hold up.

Experiment: qHTS assay for MDR1-selective chemotherapeutics: Primary screen using the parental adenocarcinoma cell KB-3-1; also: nearly all actives have a fitted effect of over 60% in size
Conditions: KB-3-1 viability, CellTiter-Glo ATP luminescence, 72 h; activity change, negative = cytotoxic: at 46.1 µM (top of the series)
Procedure, shortened: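 KB-3-1 cells, DMEM (no phenol red) + 10% FBS; compound by pin transfer, 72 h, 37 °C. Readout: CellTiter-Glo luminescence after 10 min. Data normalized, curve-fitted.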
% is scaled to controls: 0 for no effect and ±100 for the full control effect; potency is read from the fitted curve at half-maximal effect.

SMILES | Potency | activity change, negative = cytotoxic
O=C(Nc1ccc(F)cc1)C(c1ccccc1)N1CCN(c2cccc(C(F)(F)F)n2)CC1 (stereo unspecified) | inactive | –
Cc1cccc(NC(=S)/N=C(\N)Nc2nc(C)c3ccccc3n2)c1 | inconclusive: 0.411 µM [cytotoxic, full curve, poor fit] | –
O=C(Nc1cnc2ccccc2c1)c1cccnc1 | inconclusive: 29.1 µM [cytotoxic, single point] | –
O=C(NCc1nc(-c2ccc(C(F)(F)F)cc2)no1)Nc1ccc(OC(F)(F)F)cc1 | inconclusive: 18.4 µM [cytotoxic, single point] | –
Cc1cccc(C(=O)Nc2sc3c(c2C#N)CCCCC3)c1 | inactive | –
Cn1nc(C2CC2)cc1NC(=O)C1(C)CCN1C(=O)Cc1ccc(-c2ccccc2)cc1 (stereo unspecified) | inconclusive: 18.4 µM [cytotoxic, single point] | –
COC(=O)c1cc(=O)n(CCc2ccc(OC)cc2)c(=Nc2ccc(F)c(Cl)c2)s1 | inconclusive: 16.4 µM [cytotoxic, single point] | –
Cc1cnc(C(=O)NC(Cc2ccccc2)c2ccccc2)cn1 (stereo unspecified) | inactive | –
COc1ccc2c(c1)C(=O)N1[C@H]3c4cc(Br)ccc4OC[C@@H]3[C@H](c3ccccc3)[C@]1(C)C(=O)N2 | inconclusive: 29.1 µM [cytotoxic, single point] | –
CC(C)CCNc1ncnc2c1cnn2Cc1ccccc1Cl | inconclusive: 29.1 µM [cytotoxic, single point] | –
Cc1ccc(S(=O)(=O)N2CCCc3cc(NS(=O)(=O)c4cc(C)ccc4C)ccc32)cc1 | inconclusive: 20.6 µM [cytotoxic, single point] | –
CCOC(=O)CSc1ccc(C(=O)NCCCN2CCOCC2)cc1[N+](=O)[O-] | inactive | –
COc1ccc2[nH]c3c(c2c1)CCN(C(=O)c1cccc(Cl)c1)C3c1ccc(F)cc1 (stereo unspecified) | inconclusive: 3.26 µM [cytotoxic, full curve, poor fit] | –
Cc1ccc(S(=O)(=O)Cc2ccc(C(=O)N3CCN(c4cccc(Cl)c4)CC3)o2)cc1 | inconclusive: 23.1 µM [cytotoxic, partial curve, poor fit] | –
COC(=O)c1ccccc1NC(=O)c1cc2cc(C)ccc2n1C | inconclusive: 7.31 µM [cytotoxic, partial curve, poor fit] | –
Cc1nnc(N=c2ssnc2Cl)o1 | inconclusive: 16.4 µM [cytotoxic, partial curve, poor fit] | –
CS(=O)(=O)NNC(=O)Cn1nnc(-c2ccc(OCc3ccccc3Cl)cc2)n1 | inactive | –
CCc1cc(C(=O)Cc2ccc(F)cc2)c(O)cc1O | inconclusive: 18.4 µM [cytotoxic, partial curve] | –
CC1=NN(C(N)=S)C(=O)C1N=Nc1ccc(Br)cc1 (stereo unspecified) | inconclusive: 29.1 µM [cytotoxic, single point] | –
C[C@H](CO)N1C[C@H](C)[C@@H](CN(C)C(=O)Nc2ccc(C(F)(F)F)cc2)Oc2c(cccc2N(C)C)C1=O | inactive | –
COc1ccc(C(C)=O)cc1CSc1nnc(-c2ccc(Cl)cc2)n1-c1ccccc1 | inconclusive: 29.1 µM [cytotoxic, single point] | –
Cc1cc(NC(=O)c2noc3c2CCCC3)nn1Cc1ccc(Cl)cc1 | inconclusive: 29.1 µM [cytotoxic, single point] | –

SMILES | Potency | activity change, negative = cytotoxic
Cc1ccc(C)c(S(=O)(=O)c2nnn3c2nc(NC2CCCCC2)c2sccc23)c1 | inconclusive: 20.6 µM [cytotoxic, single point] | –
CCOC(=O)CSc1nc2cc(OC)c(OC)cc2cc1C#N | inconclusive: 14.6 µM [rising, partial curve, poor fit] | –
CCN(CC)S(=O)(=O)c1ccc2nc(NC(=O)c3ccco3)sc2c1 | inconclusive: 0.0073 µM [rising, full curve] | –
O=C(NNc1nc2c(F)cccc2s1)c1ccc(F)cc1 | inconclusive: 16.4 µM [cytotoxic, single point] | –
Cc1ccc(-n2nc3c(=O)n(CC(=O)NCCCc4ccccc4)nc(C)c3c2C)cc1 | inconclusive: 18.4 µM [cytotoxic, partial curve, poor fit] | –
Nc1ncnc(N)c1N=Nc1ccccc1 | inconclusive: 25.9 µM [cytotoxic, partial curve, poor fit] | –
COc1ccccc1NC(=O)c1nc[nH]c1C(=O)Nc1ccccc1OC | inactive | –
COc1ccc(S(=O)(=O)N2CCN(c3ccc4nnc(-c5ccc(F)cc5)n4n3)CC2)cc1 | inconclusive: 29.1 µM [cytotoxic, single point] | –
COc1cc(OC)cc(-c2nn[nH]n2)c1 | – | inconclusive: 36.4%
COc1ccc(CCNC(=O)CCCn2c(SCC#N)nc3ccccc3c2=O)cc1OC | inconclusive: 1.46 µM [rising, full curve] | –
CC(C)CNC(=O)CSc1nc2nn(-c3ccccc3)c(=O)c-2c2n1CCCCC2 | inactive | –
COc1ccc(/C=N/NC(=O)c2nc(-c3ccccc3)cc(-c3ccccc3)n2)cc1O | inconclusive: 29.1 µM [cytotoxic, single point] | –
COc1ccc(C(C(=O)NC(C)(C)C)n2c(=O)c(-c3ccco3)nc3ccccc32)cc1 (stereo unspecified) | inconclusive: 29.1 µM [cytotoxic, single point] | –
O=c1cc(O)c2sc(Nc3ccc(Cl)c(F)c3)nc2[nH]1 | active: 13 µM | –
CC1CCN(S(=O)(=O)c2ccc3c(ccn3CCC(=O)NCc3ccccc3F)c2)CC1 | inactive | –
COC(=O)c1c(C(=O)c2ccc(Br)cc2)n(C)c2ccccc12 | inconclusive: 29.1 µM [cytotoxic, single point] | –
CC(C)N(Cc1ccccc1)C(=S)NC(=O)C1(C)CC1(Cl)Cl (stereo unspecified) | inconclusive: 29.1 µM [cytotoxic, single point] | –
C=CC(=O)N1C/C(=C/c2ccccc2)C(=O)/C(=C\c2ccccc2)C1 | active: 4.11 µM | –
O=C(Nc1ccc2c(c1)N(C1CCCC1)C(=O)c1ccccc1S2)c1ccccc1F | inconclusive: 7.31 µM [cytotoxic, partial curve] | –
Cc1ccc(CCNC(=O)c2cc3c(s2)-c2c(C)cccc2OC3)cc1 | inconclusive: 18.4 µM [cytotoxic, partial curve, poor fit] | –
Cc1cc(CN(C)C(=O)c2cc(COc3ccc4ncccc4c3)on2)on1 | inconclusive: 32.6 µM [cytotoxic, single point] | –
COC(=O)NC(=C(Cl)Cl)S(=O)(=O)c1ccccc1 | active: 16.4 µM | –

SMILES | Potency | activity change, negative = cytotoxic
O=C(Cc1ccc(F)cc1)NCc1ccc2c(c1)CCN2C(=O)c1ccc(F)cc1 | inactive | –
COc1cccc(C2CC(c3cccc(Br)c3)n3ncnc3N2)c1 (stereo unspecified) | inconclusive: 18.4 µM [cytotoxic, single point] | –
COc1cccc(-n2c(SCC(=O)Nc3c(C)cc(C)cc3C)nc3c([nH]c4ccccc43)c2=O)c1 | inactive | –
CN(C)c1ccc(/C=N/NC(=O)C(=O)/C=C2\NC3(CCCC3)Cc3ccccc32)cc1 | inactive | –
COc1cc(NC(=O)Nc2ccc(C)cc2)cc([N+](=O)[O-])c1 | inconclusive: 25.9 µM [cytotoxic, single point] | –
O=C(NCC1CCN(Cc2ccccc2)CC1)[C@H]1O[C@@H](n2ccc(=O)[nH]c2=O)[C@H](O)[C@@H]1O | inactive | –
O=C(c1ccc([N+](=O)[O-])o1)N1CCN(c2nc3c(F)cc(F)cc3s2)CC1 | inactive | –
N#CC1CCN(C(=O)c2ccc3c(Cl)c4c(nc3c2)CCCC4)CC1 | inactive | –
CCC(=O)Nc1cccc(-c2ccc(N3CCC(C)CC3)nn2)c1 | inconclusive: 29.1 µM [cytotoxic, single point] | –
COc1ccc2c(c1)O[C@@]1(CCCC[C@@H]1C)CC2=O | – | inconclusive: 13.3%
Cc1cc(C)c(C(O)c2ncc(-c3cccc4ccccc34)[nH]2)c(C)c1 (stereo unspecified) | inconclusive: 29.1 µM [cytotoxic, partial curve, poor fit] | –
CCOc1cc(-c2nc3n(c(=O)c2C#N)CCS3)ccc1O | inconclusive: 32.6 µM [rising, single point] | –
Cc1ccccc1Nc1nnc(SCC(=O)c2cc3ccccc3o2)s1 | – | inconclusive: -11.3%
C/C=C(\CS(=O)(=O)c1ccccc1)S(=O)(=O)c1ccccc1 | inconclusive: 20.6 µM [cytotoxic, single point] | –
Fc1cccc2sc(Nc3nc4cc5c(cc4s3)OCCO5)nc12 | inconclusive: 18.4 µM [rising, partial curve, poor fit] | –
O=C(c1ccc2c(=O)n3c(nc2c1)CCCCC3)N1CCN(c2cccc(Cl)c2)CC1 | inconclusive: 9.2 µM [cytotoxic, partial curve, poor fit] | –
CCC(CO)Oc1cc(NCc2ccc(C)c(C)c2)c2ncn(C(C)C)c2c1 (stereo unspecified) | inconclusive: 25.9 µM [cytotoxic, single point] | –
Cc1cc2oc(=O)cc(CSc3nnc(-c4cccs4)o3)c2cc1C(C)C | inconclusive: 7.31 µM [cytotoxic, partial curve, poor fit] | –
COc1ccc(-c2csc(NC(=S)NC(=O)c3ccc4ccccc4c3)n2)cc1OC | inconclusive: 8.2 µM [cytotoxic, partial curve] | –
CCC1(O)CC2CN(CCc3c([nH]c4ccccc34)C(C(=O)OC)(c3cc4c(cc3OC)N(C=O)C3C(O)(C(=O)OC)C(OC(C)=O)C5(CC)C=CCN6CCC43C65)C2)C1 (stereo unspecified) | active: 0.0461 µM | –
NC(=S)N/N=C/c1ncc(C(F)(F)F)cc1Cl | inactive | –
c1cc(-c2n[nH]c(-c3ccncc3)n2)ccn1 | inconclusive: 18.4 µM [rising, single point] | –

A draw from above in order of heavy-atom count, smallest number first.
SMILES | Potency | activity change, negative = cytotoxic
NC(=S)N/N=C/c1ncc(C(F)(F)F)cc1Cl | inactive | –
Cc1cc(C)c(C(O)c2ncc(-c3cccc4ccccc34)[nH]2)c(C)c1 (stereo unspecified) | inconclusive: 29.1 µM [cytotoxic, partial curve, poor fit] | –
O=C(Cc1ccc(F)cc1)NCc1ccc2c(c1)CCN2C(=O)c1ccc(F)cc1 | inactive | –
O=C(c1ccc2c(=O)n3c(nc2c1)CCCCC3)N1CCN(c2cccc(Cl)c2)CC1 | inconclusive: 9.2 µM [cytotoxic, partial curve, poor fit] | –
